Measurements taken from the supplement of paper PMC10849652.
Some of the results follow.

The chains behind the UniProt entries cited, without tags or fusion partners. Where a name states a change or a piece, a line headed by the entry shows the natural chain unless it says otherwise.
UniProt Q8NCH0: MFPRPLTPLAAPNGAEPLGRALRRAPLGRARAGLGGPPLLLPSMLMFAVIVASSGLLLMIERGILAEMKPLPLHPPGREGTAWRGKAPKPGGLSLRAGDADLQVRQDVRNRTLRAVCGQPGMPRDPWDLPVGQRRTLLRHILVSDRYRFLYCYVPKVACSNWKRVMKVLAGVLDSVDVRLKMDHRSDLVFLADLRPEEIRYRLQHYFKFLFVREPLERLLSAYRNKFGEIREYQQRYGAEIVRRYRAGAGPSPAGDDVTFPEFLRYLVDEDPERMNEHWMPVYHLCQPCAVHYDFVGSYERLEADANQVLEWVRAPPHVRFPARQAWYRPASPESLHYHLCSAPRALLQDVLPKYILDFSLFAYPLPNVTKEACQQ
UniProt P56277: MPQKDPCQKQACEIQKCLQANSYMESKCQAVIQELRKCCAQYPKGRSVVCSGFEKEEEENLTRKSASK
UniProt Q05707: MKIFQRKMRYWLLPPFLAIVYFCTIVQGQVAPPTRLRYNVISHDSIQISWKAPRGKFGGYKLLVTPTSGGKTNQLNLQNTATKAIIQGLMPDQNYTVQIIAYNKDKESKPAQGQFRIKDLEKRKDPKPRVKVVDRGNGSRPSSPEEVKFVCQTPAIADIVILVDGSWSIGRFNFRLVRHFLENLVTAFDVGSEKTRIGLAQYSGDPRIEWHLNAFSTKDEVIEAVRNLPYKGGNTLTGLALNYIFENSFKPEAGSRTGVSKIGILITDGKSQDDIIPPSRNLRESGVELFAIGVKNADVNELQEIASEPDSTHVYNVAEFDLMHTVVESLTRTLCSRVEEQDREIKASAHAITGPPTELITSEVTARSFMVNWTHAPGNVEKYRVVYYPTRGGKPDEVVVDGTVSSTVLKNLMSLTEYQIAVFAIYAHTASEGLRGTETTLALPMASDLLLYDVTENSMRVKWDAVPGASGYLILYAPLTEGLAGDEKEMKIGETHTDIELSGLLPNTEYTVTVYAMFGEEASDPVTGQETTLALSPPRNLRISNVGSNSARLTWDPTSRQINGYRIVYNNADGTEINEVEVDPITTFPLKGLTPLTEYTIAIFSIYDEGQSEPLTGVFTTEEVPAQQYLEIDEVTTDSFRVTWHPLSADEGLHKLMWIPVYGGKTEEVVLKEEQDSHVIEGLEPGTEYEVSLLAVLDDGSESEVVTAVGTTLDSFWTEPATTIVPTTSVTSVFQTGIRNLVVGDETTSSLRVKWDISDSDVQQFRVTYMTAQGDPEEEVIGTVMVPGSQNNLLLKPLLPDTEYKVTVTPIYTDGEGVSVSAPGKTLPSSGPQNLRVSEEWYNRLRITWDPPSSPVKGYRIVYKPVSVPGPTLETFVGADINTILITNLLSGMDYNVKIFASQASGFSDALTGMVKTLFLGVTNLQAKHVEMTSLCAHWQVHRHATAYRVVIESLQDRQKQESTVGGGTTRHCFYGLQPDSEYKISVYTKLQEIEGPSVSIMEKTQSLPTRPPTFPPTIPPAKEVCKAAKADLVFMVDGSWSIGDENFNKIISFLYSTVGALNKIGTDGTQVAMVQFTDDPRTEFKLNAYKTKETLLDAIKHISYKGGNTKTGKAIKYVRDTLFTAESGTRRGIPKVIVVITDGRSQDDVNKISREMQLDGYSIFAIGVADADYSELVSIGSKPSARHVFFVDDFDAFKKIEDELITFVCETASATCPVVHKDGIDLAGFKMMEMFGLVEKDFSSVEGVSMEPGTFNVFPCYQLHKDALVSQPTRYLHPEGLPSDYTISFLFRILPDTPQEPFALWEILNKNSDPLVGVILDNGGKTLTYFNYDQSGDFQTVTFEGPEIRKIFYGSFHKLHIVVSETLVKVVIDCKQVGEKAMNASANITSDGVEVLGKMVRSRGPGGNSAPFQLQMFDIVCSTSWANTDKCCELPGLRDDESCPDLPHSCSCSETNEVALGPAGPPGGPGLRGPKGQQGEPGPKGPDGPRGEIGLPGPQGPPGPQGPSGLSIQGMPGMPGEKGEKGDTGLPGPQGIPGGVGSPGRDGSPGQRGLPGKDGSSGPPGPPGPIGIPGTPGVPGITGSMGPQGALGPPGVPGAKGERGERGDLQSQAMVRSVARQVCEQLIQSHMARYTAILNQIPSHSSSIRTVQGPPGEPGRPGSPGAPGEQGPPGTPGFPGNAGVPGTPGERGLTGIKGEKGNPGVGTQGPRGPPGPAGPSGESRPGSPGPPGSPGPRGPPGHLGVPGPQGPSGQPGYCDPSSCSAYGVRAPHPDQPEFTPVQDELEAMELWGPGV
UniProt P51911: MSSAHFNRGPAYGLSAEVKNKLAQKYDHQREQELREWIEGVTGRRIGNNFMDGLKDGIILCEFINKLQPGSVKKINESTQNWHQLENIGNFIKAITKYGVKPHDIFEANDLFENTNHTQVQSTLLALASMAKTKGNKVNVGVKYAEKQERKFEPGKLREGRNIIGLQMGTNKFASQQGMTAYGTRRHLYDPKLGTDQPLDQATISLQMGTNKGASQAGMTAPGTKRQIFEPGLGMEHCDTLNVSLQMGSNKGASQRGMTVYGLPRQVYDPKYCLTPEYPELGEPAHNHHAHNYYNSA
UniProt Q9UP83: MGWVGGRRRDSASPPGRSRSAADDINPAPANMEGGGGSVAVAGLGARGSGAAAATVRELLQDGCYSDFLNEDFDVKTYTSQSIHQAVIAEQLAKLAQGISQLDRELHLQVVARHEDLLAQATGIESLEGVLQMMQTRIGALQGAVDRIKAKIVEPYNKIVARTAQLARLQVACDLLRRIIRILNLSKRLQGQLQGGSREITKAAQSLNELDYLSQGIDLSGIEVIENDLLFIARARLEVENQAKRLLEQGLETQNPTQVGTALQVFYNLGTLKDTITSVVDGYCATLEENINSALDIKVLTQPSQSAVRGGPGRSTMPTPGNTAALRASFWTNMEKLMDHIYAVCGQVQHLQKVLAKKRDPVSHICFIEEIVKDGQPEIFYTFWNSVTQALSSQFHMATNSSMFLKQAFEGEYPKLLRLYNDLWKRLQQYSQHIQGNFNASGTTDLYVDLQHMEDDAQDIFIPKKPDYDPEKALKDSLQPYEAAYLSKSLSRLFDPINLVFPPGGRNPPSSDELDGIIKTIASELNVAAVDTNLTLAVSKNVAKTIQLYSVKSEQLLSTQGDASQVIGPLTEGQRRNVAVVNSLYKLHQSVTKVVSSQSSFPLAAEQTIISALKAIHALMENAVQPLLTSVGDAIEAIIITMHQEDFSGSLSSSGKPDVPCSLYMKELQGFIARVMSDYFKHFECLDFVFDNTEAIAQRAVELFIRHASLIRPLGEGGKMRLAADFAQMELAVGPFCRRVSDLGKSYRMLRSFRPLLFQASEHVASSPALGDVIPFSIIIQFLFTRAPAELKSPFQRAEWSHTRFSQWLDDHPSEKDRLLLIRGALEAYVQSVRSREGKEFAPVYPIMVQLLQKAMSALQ
UniProt Q8WWK9: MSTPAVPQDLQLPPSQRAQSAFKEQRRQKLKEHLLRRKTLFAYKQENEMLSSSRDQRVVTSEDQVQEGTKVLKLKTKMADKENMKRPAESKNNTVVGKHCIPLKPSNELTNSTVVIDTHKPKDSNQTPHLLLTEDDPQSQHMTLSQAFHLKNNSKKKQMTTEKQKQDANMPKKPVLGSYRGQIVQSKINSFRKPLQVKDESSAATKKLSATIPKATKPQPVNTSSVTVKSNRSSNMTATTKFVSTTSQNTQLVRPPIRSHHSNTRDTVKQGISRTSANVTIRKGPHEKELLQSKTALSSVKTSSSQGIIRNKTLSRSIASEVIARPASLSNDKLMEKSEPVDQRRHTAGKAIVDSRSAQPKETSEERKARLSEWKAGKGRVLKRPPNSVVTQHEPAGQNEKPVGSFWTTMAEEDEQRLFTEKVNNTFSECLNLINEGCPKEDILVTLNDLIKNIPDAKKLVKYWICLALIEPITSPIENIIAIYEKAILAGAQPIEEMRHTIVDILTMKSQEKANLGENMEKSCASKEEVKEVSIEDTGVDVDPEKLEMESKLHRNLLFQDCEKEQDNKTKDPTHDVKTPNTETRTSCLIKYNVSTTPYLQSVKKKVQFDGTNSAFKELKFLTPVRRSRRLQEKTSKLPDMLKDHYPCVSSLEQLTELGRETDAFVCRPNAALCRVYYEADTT
UniProt P02452, whole entry, looked up: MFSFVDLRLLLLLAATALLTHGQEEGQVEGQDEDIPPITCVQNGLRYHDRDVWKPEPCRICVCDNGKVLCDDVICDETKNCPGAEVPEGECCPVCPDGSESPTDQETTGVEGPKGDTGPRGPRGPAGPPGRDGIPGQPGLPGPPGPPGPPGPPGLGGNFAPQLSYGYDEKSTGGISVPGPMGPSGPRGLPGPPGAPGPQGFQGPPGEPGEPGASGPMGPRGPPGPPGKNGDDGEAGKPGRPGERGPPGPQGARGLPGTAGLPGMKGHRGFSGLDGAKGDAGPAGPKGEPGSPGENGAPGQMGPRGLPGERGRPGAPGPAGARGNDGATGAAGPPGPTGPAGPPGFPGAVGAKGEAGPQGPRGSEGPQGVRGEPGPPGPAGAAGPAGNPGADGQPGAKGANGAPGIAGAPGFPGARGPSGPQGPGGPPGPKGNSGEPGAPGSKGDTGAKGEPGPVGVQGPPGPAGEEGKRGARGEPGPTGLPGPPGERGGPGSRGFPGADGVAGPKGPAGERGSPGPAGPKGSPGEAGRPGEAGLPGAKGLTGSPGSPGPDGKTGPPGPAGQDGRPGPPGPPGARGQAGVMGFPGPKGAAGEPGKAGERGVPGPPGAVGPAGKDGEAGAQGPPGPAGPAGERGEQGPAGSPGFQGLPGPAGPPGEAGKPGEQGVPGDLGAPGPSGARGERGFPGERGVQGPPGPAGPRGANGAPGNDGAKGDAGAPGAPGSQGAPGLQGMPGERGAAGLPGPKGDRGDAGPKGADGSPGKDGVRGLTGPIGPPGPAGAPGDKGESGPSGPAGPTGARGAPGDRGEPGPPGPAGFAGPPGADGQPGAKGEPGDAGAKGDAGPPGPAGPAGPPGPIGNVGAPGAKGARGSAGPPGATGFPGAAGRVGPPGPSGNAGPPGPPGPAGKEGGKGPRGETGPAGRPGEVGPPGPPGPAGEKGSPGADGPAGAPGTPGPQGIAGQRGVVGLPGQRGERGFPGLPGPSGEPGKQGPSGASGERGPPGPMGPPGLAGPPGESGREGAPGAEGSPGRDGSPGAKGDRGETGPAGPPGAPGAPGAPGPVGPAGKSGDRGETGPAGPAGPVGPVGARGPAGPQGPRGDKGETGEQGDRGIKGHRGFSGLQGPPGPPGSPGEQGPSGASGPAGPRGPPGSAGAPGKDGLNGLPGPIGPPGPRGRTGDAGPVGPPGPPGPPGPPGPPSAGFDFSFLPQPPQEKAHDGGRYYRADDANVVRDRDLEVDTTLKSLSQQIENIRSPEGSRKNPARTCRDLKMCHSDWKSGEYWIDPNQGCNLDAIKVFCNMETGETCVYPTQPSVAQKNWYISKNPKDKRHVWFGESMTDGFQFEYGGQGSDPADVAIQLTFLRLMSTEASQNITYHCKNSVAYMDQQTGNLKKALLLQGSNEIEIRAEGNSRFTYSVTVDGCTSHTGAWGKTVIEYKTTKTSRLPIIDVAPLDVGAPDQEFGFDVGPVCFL
UniProt Q13286: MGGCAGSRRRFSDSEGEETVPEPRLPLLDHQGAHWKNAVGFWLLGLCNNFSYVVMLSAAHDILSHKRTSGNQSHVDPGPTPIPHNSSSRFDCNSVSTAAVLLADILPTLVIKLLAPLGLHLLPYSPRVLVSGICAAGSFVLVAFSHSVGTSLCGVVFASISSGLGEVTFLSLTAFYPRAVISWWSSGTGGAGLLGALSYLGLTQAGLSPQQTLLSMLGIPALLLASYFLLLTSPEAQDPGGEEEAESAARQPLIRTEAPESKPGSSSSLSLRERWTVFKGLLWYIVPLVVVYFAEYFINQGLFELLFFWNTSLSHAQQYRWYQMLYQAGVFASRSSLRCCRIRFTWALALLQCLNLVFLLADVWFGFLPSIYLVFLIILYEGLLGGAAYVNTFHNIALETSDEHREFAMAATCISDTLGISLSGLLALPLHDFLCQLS
UniProt Q96MW5: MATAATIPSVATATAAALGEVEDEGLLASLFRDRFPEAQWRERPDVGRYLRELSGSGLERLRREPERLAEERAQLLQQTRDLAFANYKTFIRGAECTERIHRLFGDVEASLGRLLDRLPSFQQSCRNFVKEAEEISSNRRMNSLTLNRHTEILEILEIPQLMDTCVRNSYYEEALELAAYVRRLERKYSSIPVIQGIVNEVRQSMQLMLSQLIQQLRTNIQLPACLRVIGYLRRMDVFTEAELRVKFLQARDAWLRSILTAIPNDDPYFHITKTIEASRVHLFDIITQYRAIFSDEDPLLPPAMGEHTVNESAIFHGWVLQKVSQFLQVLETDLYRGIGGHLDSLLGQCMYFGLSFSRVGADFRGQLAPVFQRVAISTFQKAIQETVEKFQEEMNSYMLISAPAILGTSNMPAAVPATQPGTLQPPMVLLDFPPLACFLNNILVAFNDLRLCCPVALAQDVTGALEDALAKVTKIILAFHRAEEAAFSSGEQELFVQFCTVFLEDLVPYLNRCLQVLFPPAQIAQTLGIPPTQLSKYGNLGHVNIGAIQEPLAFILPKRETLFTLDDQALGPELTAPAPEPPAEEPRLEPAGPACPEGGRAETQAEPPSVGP

What was measured:
Assay in all cases: log2 fold change, soluble protein after heating vs DMSO (PISA); higher = thermal stabilisation; K562 cells, 10 uM, 30 min; active = over 0.2 and 3.5 SD of the protein, either way, in both replicates (recomputed)
[1] = compound: COC1=CC=C(C=C1)CN2C=CC3=C2C=C(C=C3)C(=O)NO
Method in brief: (§1)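 Thermal stability values are relative to control samples and come from duplicates. They are expressed as log2 fold changes. For measurement, K562 cells (2×10^6 cells/mL) received 10 μM compound for 30 min, and aliquots were heated for 3 min over 48°C-58°C, pooled, and extracted at 4°C in PBS with 0.5% NP-40. Soluble protein, the supernatant after 21,000xg for 90 min, was quantified by TMTpro 16plex LC-MS/MS with equalised channel sums.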

[2] = compound: CO[C@H]1C[C@@H]2CC[C@@H](C)[C@@](O)(O2)C(=O)C(=O)N2CCCC[C@H]2C(=O)O[C@H]([C@H](C)C[C@@H]2CC[C@H](n3cnnn3)[C@H](OC)C2)CC(=O)[C@H](C)/C=C(\C)[C@@H](O)[C@@H](OC)C(=O)[C@H](C)C[C@H](C)/C=C/C=C/C=C/1C [zotarolimus]
Method in brief: as §1

[3] = compound: COc1cc(C(=O)O)ccc1NC(=O)[C@@H]1N[C@@H](CC(C)(C)C)[C@](C#N)(c2ccc(Cl)cc2F)[C@H]1c1cccc(Cl)c1F [idasanutlin]
Method in brief: as §1

[4] = compound: COc1cc(Nc2ncc3c(n2)-c2ccc(Cl)cc2C(c2c(F)cccc2OC)=NC3)ccc1C(=O)O [alisertib]
Method in brief: as §1

[5] = compound: COc1cc2nc(-c3cc(F)ccc3O)nc(N[C@@H]3CNC[C@H]3C(C)(C)O)c2cc1OC
Method in brief: as §1

[6] = compound: COc1cc2ncnc(Nc3ccc(F)c(Cl)c3)c2cc1OCCCN1CCOCC1 [gefitinib]
Method in brief: as §1

[7] = compound: COc1cccc2cc(-c3nc([C@H]4CC[C@H](C(=O)O)CC4)n4ncnc(N)c34)[nH]c12
Method in brief: as §1

[8] = compound: CS(=O)(=O)CCNCc1ccc(-c2ccc3ncnc(Nc4ccc(OCc5cccc(F)c5)c(Cl)c4)c3c2)o1 [lapatinib]
Method in brief: as §1

[9] = compound: CS(=O)(=O)N1CCN(Cc2cc3nc(-c4cccc5[nH]ncc45)nc(N4CCOCC4)c3s2)CC1 [pictilisib]
Method in brief: as §1

[10] = compound: C[C@@H](Oc1cc(-c2cnn(C3CCNCC3)c2)cnc1N)c1c(Cl)ccc(F)c1Cl [crizotinib]
Method in brief: as §1

[11] = compound: C[C@@H]1COCCN1C2=NC(=NC(=C2)C3(CC3)S(=O)(=O)C)C4=C5C=CNC5=CC=C4
Method in brief: as §1

[12] = compound: C[C@H](C1=CC=C(C=C1)C(=O)NC2=C3C=CNC3=NC=C2)N
Method in brief: as §1

[13] = compound: C[C@H](Nc1ncnc2nc[nH]c12)c1cc2cccc(Cl)c2c(=O)n1-c1ccccc1 [duvelisib]
Method in brief: as §1

[14] = compound: Cc1cc(Nc2cc(CN3CCOCC3)c3nc(C)c(Cc4ccc(Cl)cc4F)n3n2)n[nH]1 [gandotinib]
Method in brief: as §1

[15] = compound: Cc1cc(Nc2cc(N3CCN(C)CC3)nc(Sc3ccc(NC(=O)C4CC4)cc3)n2)n[nH]1 [tozasertib]
Method in brief: as §1

[16] = compound: Cc1cc(SCc2sc(-c3ccc(C(F)(F)F)cc3)nc2C)ccc1OCC(=O)O
Method in brief: as §1

[17] = compound: Cc1ccc(-n2nc(C(C)(C)C)cc2NC(=O)Nc2ccc(OCCN3CCOCC3)c3ccccc23)cc1 [doramapimod]
Method in brief: as §1

[18] = compound: Cc1ccc(C(=O)N(CCCN)[C@@H](c2nc3cc(Cl)ccc3c(=O)n2Cc2ccccc2)C(C)C)cc1 [ispinesib]
Method in brief: as §1

[19] = compound: CON(C)C(=O)N1N=C(c2cc(F)ccc2F)S[C@@]1(CCCN)c1ccccc1 [filanesib]
Method in brief: as §1

[20] = compound: CS(=O)(=O)c1ccc(-c2cnc(N)c(C(=O)Nc3ccccc3)n2)cc1
Method in brief: as §1

Measured: log2 fold change

CHST14 (UniProt Q8NCH0)
inactive: [1] -0.057 | [2] 0 | [3] 0.003 | [4] -0.131 | [5] -0.048 | [6] -0.051 | [7] -0.022 | [8] 0.053 | [9] 0.059 | [10] -0.122 | [11] 0.002 | [12] 0.006 | [13] -0.06 | [14] -0.049 | [15] -0.112 | [16] -0.059 | [17] 0.06 | [18] -0.118

CLASP2 (UniProt O75122)
inactive: [1] 0.015 | [2] 0.235 | [3] 0.101 | [4] -0.025 | [5] 0.125 | [6] 0.071 | [7] 0.072 | [8] 0.032 | [10] -0.21 | [12] 0.155 | [17] 0.132 | [18] -0.007

CLIC6 (UniProt Q96NY7)
inactive: [1] -0.043 | [19] 0.148 | [4] 0.066 | [6] 0.038 | [7] -0.007 | [20] -0.055 | [10] 0.061 | [11] 0.278 | [13] 0.059 | [15] -0.082 | [16] 0.032 | [17] -0.128 | [18] -0.011

CHST12 (UniProt Q9NRB3)
inactive: [1] -0.003 | [19] -0.062 | [2] -0.008 | [9] -0.033 | [20] -0.19 | [10] -0.02 | [11] 0.029 | [12] 0.007 | [13] 0.078 | [14] 0.133 | [15] -0.037 | [16] -0.096 | [17] 0.048 | [18] -0.167

CNOT11 (UniProt Q9UKZ1)
inactive: [1] -0.006 | [19] -0.008 | [2] -0.023 | [3] 0.008 | [4] -0.027 | [6] -0.003 | [7] 0.039 | [20] -0.031 | [10] -0.085 | [11] -0.189 | [12] 0.031 | [13] -0.035 | [15] -0.072 | [16] -0.01 | [17] 0.017 | [18] -0.072

CNNM2 (UniProt Q9H8M5)
inactive: [1] -0.18 | [19] 0.25 | [2] -0.138 | [4] -0.295 | [5] -0.026 | [6] 0.048 | [7] 0.163 | [8] 0.003 | [9] 0.182 | [20] -0.155 | [10] 0.075 | [11] -0.044 | [12] 0.295 | [13] -0.134 | [14] 0.031 | [15] -0.04 | [16] 0.278 | [17] 0.128 | [18] 0.216

CMC4 (UniProt P56277)
inactive: [1] -0.086 | [2] -0.032 | [3] -0.008 | [5] 0.018 | [8] -0.031 | [9] 0.051 | [10] 0.189 | [12] -0.11 | [13] 0.212 | [14] -0.029 | [16] 0.013 | [17] 0.11 | [18] -0.057

COL14A1 (UniProt Q05707)
inactive: [1] 0.133 | [19] 0.068 | [4] -0.234 | [5] -0.011 | [6] -0.044 | [7] 0.064 | [8] -0.06 | [9] -0.05 | [20] -0.195 | [10] 0.084 | [11] -0.198 | [13] -0.105 | [14] 0.156 | [15] 0.025 | [16] -0.013 | [17] -0.205

CLCNKB (UniProt P51801)
inactive: [1] -0.146 | [2] 0.136 | [3] 0.157 | [5] -0.031 | [8] -0.012 | [10] 0.112 | [11] 0.103 | [12] -0.064 | [13] -0.004 | [14] -0.1 | [16] -0.047 | [17] -0.038

CLINT1 (UniProt Q14677)
inactive: [1] -0.371 | [2] 0.263 | [3] -0.012 | [4] -0.137 | [6] 0.077 | [7] -0.055 | [10] 0.166 | [12] 0.005 | [16] -0.155 | [17] 0.154

CIAO2B (UniProt Q9Y3D0)
inactive: [1] -0.06 | [19] 0.363 | [2] -0.075 | [4] -0.212 | [5] -0.135 | [6] 0.084 | [7] -0.154 | [8] -0.037 | [20] 0.021 | [10] -0.044 | [12] -0.393 | [13] -0.038 | [16] 0.317 | [17] -0.049

CNN1 (UniProt P51911)
active: [14] -0.673
inactive: [19] -0.051 | [2] 0.047 | [3] -0.048 | [4] -0.055 | [5] 0.182 | [6] -0.14 | [7] 0.059 | [8] -0.068 | [9] 0.172 | [20] -0.052 | [11] 0.045 | [12] -0.121

COG5 isoform 2 (UniProt Q9UP83)
inactive: [1] 0.051 | [10] 0.036 | [17] 0.303 | [18] -0.293

CNOT4 isoform 9 (UniProt O95628)
active: [2] -0.373 | [3] -0.334 | [12] 0.484
inactive: [1] -0.018 | [4] 0.018 | [5] 0.106 | [6] 0.053 | [7] 0.019 | [8] -0.083 | [9] 0.045 | [10] -0.094 | [14] -0.059 | [16] -0.086 | [17] 0.274 | [18] -0.102

2 records picked at random from the list so far, as already listed:
CLINT1 (UniProt Q14677)
inactive: [1] -0.371 | [2] 0.263 | [3] -0.012 | [4] -0.137 | [6] 0.077 | [7] -0.055 | [10] 0.166 | [12] 0.005 | [16] -0.155 | [17] 0.154

COG5 isoform 2 (UniProt Q9UP83)
inactive: [1] 0.051 | [10] 0.036 | [17] 0.303 | [18] -0.293

More records

CKAP2 (UniProt Q8WWK9)
inactive: [1] -0.024 | [19] 0.757 | [2] -0.052 | [4] -0.106 | [5] -0.08 | [6] -0.058 | [7] -0.136 | [8] 0.185 | [20] -0.032 | [10] -0.347 | [11] -0.571 | [12] 0.452 | [13] -0.184 | [15] -0.173 | [16] 0.093 | [17] 0.142 | [18] -0.431

COL18A1 (UniProt P39060)
inactive: [19] 0.098 | [2] -0.085 | [3] 0.181 | [4] -0.019 | [5] -0.122 | [6] 0.046 | [7] 0.314 | [8] -0.001 | [9] -0.017 | [20] -0.205 | [11] -0.244 | [12] 0.126 | [13] 0.06 | [14] 0.077 | [15] 0.005 | [16] -0.019 | [18] -0.078

CLCN5 isoform 2 (UniProt P51795)
active: [18] -0.419
inactive: [1] -0.011 | [2] -0.004 | [6] 0.011 | [10] -0.321 | [12] -0.123 | [14] -0.083 | [16] -0.049 | [17] -0.03

COL1A1 (UniProt P02452)
inactive: [1] 0.032 | [19] 0.188 | [2] -0.27 | [3] 0.12 | [5] 0.04 | [8] -0.052 | [20] 0.054 | [10] 0.161 | [11] -0.059 | [12] 0.461 | [13] 0.041 | [15] -0.121 | [16] -0.207 | [17] 0.112 | [18] 0.004

CLN3 (UniProt Q13286)
inactive: [1] 0.008 | [2] -0.1 | [4] 0 | [5] 0.08 | [6] -0.028 | [7] 0.139 | [8] -0.059 | [10] -0.327 | [11] 0.066 | [12] 0.071 | [16] -0.085 | [17] -0.047 | [18] -0.307

COL1A2 (UniProt P08123)
inactive: [1] -0.117 | [19] 0.176 | [2] -0.385 | [3] 0.019 | [6] 0.297 | [9] -0.02 | [20] 0.022 | [10] 0.229 | [11] -0.013 | [12] 0.179 | [13] -0.027 | [14] -0.022 | [15] -0.124 | [16] -0.288 | [17] -0.146 | [18] 0.016

COG8 (UniProt Q96MW5)
inactive: [1] -0.025 | [2] 0.045 | [4] -0.136 | [7] 0 | [10] -0.099 | [11] -0.031 | [12] 0.487 | [17] 0.102
